Reference: US20020028208A1 (TEXAS A AND M UNIVERSITY SYSTEM, published 2002)
These are yes or no findings as the source states them, for the method shown. Some results given as binding are weak or reduced against the parent protein; the word gives no strength.

What was measured:
[1] = target: T1, feline CD28, surface expressed on CD28-pSI transfected COS-7 cells (feline) (UniProt O02757); assay: cell-cell adhesion assay: calcein-labeled CD80-pSI COS-7 cells on adherent CD28-pSI COS-7 cells against mock transfected cells; microplate fluorimeter
T1 sequence: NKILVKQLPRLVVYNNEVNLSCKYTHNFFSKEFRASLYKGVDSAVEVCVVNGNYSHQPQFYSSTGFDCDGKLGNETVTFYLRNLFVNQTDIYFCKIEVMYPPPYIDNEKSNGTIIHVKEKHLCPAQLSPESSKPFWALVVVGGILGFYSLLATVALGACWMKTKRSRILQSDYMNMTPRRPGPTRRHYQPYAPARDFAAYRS

[2] = target: T1, feline CD28, surface expressed on CD28-pSI transfected COS-7 cells (feline); assay: cell-cell adhesion assay together with the competitive binding assay; transfected COS-7 cells
[3] = target: T1, feline CD28, surface expressed on CD28-pSI transfected COS-7 cells (feline); assay: cell-cell adhesion assay with transfected COS-7 cells
[4] = target: T1, feline CD28, surface expressed on CD28-pSI transfected COS-7 cells (feline); assay: cell-cell adhesion assay with transfected COS-7 cells; retention of fluorescently labeled cells

Measured: binding

B1: feline CD80 (B7-1)-TAMU, surface expressed on feCD80/pSI transfected COS-7 cells (ligand)
chain: ASLFYFCSGIIQVNKTVEEVAVLSCDYNISTKELTEIRIYWQKDDEMVLAVMSGKVQVWPKYKNRTFTDVTDNHSIVIMALRLSDNGKYTCIIQKIEKGSYKVKHLTSVMLLVRADFPVPSITDLGNPSHNIKRIMCLTSGGFPKPHLSWLENEEELNAINTTVSQDPETELYTISSELDFNMTNNHSFLCLVKYGNLLVSQIFNWQKSEPQPSNNQLWIIILSSVVSGIVVITALTLRCLVHRPAARWRQREMGRARKWKRSHLST
notes: also called CD80-pSI transfected COS cells
binds: [1] | [2] | [3] | [4]
